Results deposited as PubChem BioAssay AID652243 (Drosophila RNAi Screening Center, 2013).

- Screen: 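Fly genes required for human androgen receptor driven transcription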 (primary screen)
- Cell system: Drosophila S2R+ cells
- Reagents: long dsRNA against Drosophila genes
- Timing: 72 h (48 h, then 24 h hormone)
- Challenge: synthetic androgen R1881 at 10 nM for 24 h
- Read-out: 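Firefly light from an androgen-responsive reporter and Renilla control light per well, raw and unnormalised, for each of two replicates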
- Scale: firefly reporter light: higher = more light from androgen-responsive reporter; Renilla control light: higher = more constitutive control signal (cell number, transfection)
- Rule for the call: 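Hit when the log firefly-to-Renilla ratio dropped or increased by a fixed fold versus the mean of GFP or LacZ controls across duplicate plates; lowering cut given as 1.5 and as 3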
- Calls: active = hit: reporter lowered or raised; inactive = no hit
In all, the deposit lists about 24,000 reagents; shown is a random part of those with a known target gene and a result. In the full data, 246 (1%) got an active call. 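Plates not normalised; calls are printed but the firefly/Renilla ratio behind them is not deposited; fold cut for lowering reported inconsistently.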 Raw values vary from plate to plate and are shown uncorrected. A plus sign joins genes that one reagent is predicted to hit. Not given: the amount of reagent.

{"gene":"Tomosyn","dsRNA":"DRSC19365","firefly reporter light, replicate 1":38751,"firefly reporter light, replicate 2":21172,"Renilla control light, replicate 1":4.03e5,"Renilla control light, replicate 2":3.97e5,"activity call":"active"}
{"gene":"Tomosyn","dsRNA":"DRSC19692","firefly reporter light, replicate 1":4.40e5,"firefly reporter light, replicate 2":3.09e5,"Renilla control light, replicate 1":3.74e6,"Renilla control light, replicate 2":3.18e6,"activity call":"inactive"}
{"gene":"Tomosyn","dsRNA":"DRSC19782","firefly reporter light, replicate 1":1.13e5,"firefly reporter light, replicate 2":77073,"Renilla control light, replicate 1":7.50e5,"Renilla control light, replicate 2":6.88e5,"activity call":"inactive"}
{"gene":"Tomosyn","dsRNA":"DRSC19842","firefly reporter light, replicate 1":4.47e5,"firefly reporter light, replicate 2":3.22e5,"Renilla control light, replicate 1":2.67e6,"Renilla control light, replicate 2":1.85e6,"activity call":"inactive"}
{"gene":"Tomosyn","dsRNA":"DRSC25047","firefly reporter light, replicate 1":4.34e5,"firefly reporter light, replicate 2":3.26e5,"Renilla control light, replicate 1":7.83e5,"Renilla control light, replicate 2":4.59e5,"activity call":"inactive"}
{"gene":"Wnt6 (Wnt oncogene analog 6)","dsRNA":"DRSC02795","firefly reporter light, replicate 1":2.60e5,"firefly reporter light, replicate 2":1.89e5,"Renilla control light, replicate 1":2.66e6,"Renilla control light, replicate 2":2.52e6,"activity call":"inactive"}
{"gene":"Wnt6 (Wnt oncogene analog 6)","dsRNA":"DRSC26973","firefly reporter light, replicate 1":5.17e5,"firefly reporter light, replicate 2":2.66e5,"Renilla control light, replicate 1":9.28e5,"Renilla control light, replicate 2":3.25e5,"activity call":"inactive"}
{"gene":"BI-1 (Bax Inhibitor-1)","dsRNA":"DRSC10782","firefly reporter light, replicate 1":1.01e6,"firefly reporter light, replicate 2":9.62e5,"Renilla control light, replicate 1":1.02e6,"Renilla control light, replicate 2":1.03e6,"activity call":"inactive"}
{"gene":"CG17159 + CG17162","dsRNA":"DRSC20899","firefly reporter light, replicate 1":2.72e5,"firefly reporter light, replicate 2":2.73e5,"Renilla control light, replicate 1":5.08e5,"Renilla control light, replicate 2":4.61e5,"activity call":"inactive"}
{"gene":"CG17159 + CG17162","dsRNA":"DRSC20900","firefly reporter light, replicate 1":1.40e5,"firefly reporter light, replicate 2":1.70e5,"Renilla control light, replicate 1":2.80e5,"Renilla control light, replicate 2":2.80e5,"activity call":"inactive"}
{"gene":"Zip102B (Zinc/iron regulated transporter-related protein 102B)","dsRNA":"DRSC17155","firefly reporter light, replicate 1":6.11e5,"firefly reporter light, replicate 2":1.07e6,"Renilla control light, replicate 1":1.35e6,"Renilla control light, replicate 2":2.36e6,"activity call":"inactive"}
{"gene":"Zip102B (Zinc/iron regulated transporter-related protein 102B)","dsRNA":"DRSC26001","firefly reporter light, replicate 1":5.80e5,"firefly reporter light, replicate 2":6.11e5,"Renilla control light, replicate 1":1.10e6,"Renilla control light, replicate 2":9.14e5,"activity call":"inactive"}

An excerpt of the results above, for reference:
{"gene":"Wnt6 (Wnt oncogene analog 6)","dsRNA":"DRSC02795","firefly reporter light, replicate 1":2.60e5,"firefly reporter light, replicate 2":1.89e5,"Renilla control light, replicate 1":2.66e6,"Renilla control light, replicate 2":2.52e6,"activity call":"inactive"}
{"gene":"Wnt6 (Wnt oncogene analog 6)","dsRNA":"DRSC26973","firefly reporter light, replicate 1":5.17e5,"firefly reporter light, replicate 2":2.66e5,"Renilla control light, replicate 1":9.28e5,"Renilla control light, replicate 2":3.25e5,"activity call":"inactive"}
